In the supplement of paper PMC6078165:
The reference is the same well before dosing, and untreated signal decays as well.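 Fibroblast labels name human fibroblasts: mostly primary ones from tissues such as uterus (C12385, HUF), lung (H6013), bone (Hs27A), adrenal (HADF) and skin (WS1), plus mammary HMF and breast cancer-associated Hs343T. The cancer cells are basal-like or mesenchymal-like triple-negative breast cancer lines. The paper calls a changed response a hit when it shifts by more than 3x the replicate standard deviation. The tissue of the other fibroblasts is not given here.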

Tested on: HCC1143
Test: relative JC-1 red fluorescence (viability) vs pre-drug, coculture with fibroblast (fraction); higher = more viable cancer cells
Experimental: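 JC-1 labelled TNBC cells cocultured 1:1 (1,500 cells each) with CellTrace Violet stained primary or stromal fibroblasts in 384-well plates in FluoroBrite medium, treated with one of 42 anticancer drugs at 0.1, 1, 10 or 100 uM. JC-1 red fluorescence (mitochondrial integrity in cancer cells only) was read by plate reader every 8 h for 72 h. Values are normalised to each well's pre-drug value. The stock of one drug was tenfold lower, so its dose labels may be too high.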

O=c1[nH]cc(F)c(=O)[nH]1 [Fluorouracil]
relative JC-1 red fluorescence
Conditions	8 h	16 h	24 h	32 h	40 h	48 h	56 h	64 h	72 h
10 µM, coculture fibroblast: C12385	0.856	0.7925	0.709	0.653	0.598	0.569	0.534	0.49	0.472
10 µM, coculture fibroblast: H6013	0.786	0.693	0.665	0.639	0.577	0.567	0.531	0.512	0.471
10 µM, coculture fibroblast: H6019	0.822	0.746	0.709	0.655	0.625	0.608	0.574	0.5442	0.5248
10 µM, coculture fibroblast: H6076	0.77	0.7631	0.707	0.628	0.609	0.588	0.552	0.519	0.521
10 µM, coculture fibroblast: H6231	0.815	0.802	0.717	0.62	0.6235	0.593	0.56	0.525	0.501
10 µM, coculture fibroblast: HADF	0.768	0.72	0.705	0.72	0.649	0.638	0.61	0.587	0.584
10 µM, coculture fibroblast: HCFa	0.816	0.71	0.67	0.653	0.563	0.53	0.486	0.456	0.428
10 µM, coculture fibroblast: HCPF	0.811	0.809	0.734	0.652	0.651	0.619	0.587	0.552	0.542
10 µM, coculture fibroblast: HHSteC	0.828	0.718	0.683	0.653	0.584	0.555	0.504	0.478	0.436
10 µM, coculture fibroblast: HMF	0.761	0.7457	0.6802	0.6091	0.585	0.554	0.506	0.473	0.441
10 µM, coculture fibroblast: HPFa	0.928	0.866	0.787	0.711	0.646	0.609	0.562	0.522	0.48
10 µM, coculture fibroblast: HUF	0.851	0.741	0.654	0.568	0.507	0.481	0.437	0.405	0.373
10 µM, coculture fibroblast: Hs5	0.86	0.8583	0.816	0.788	0.727	0.697	0.67	0.637	0.636
10 µM, coculture fibroblast: Hs27A	0.747	0.681	0.678	0.708	0.632	0.641	0.617	0.612	0.604
10 µM, coculture fibroblast: Hs343T	0.7931	0.839	0.7571	0.644	0.6545	0.61	0.554	0.517	0.474
10 µM, coculture fibroblast: WS1	0.848	0.758	0.691	0.618	0.572	0.547	0.516	0.479	0.457
100 µM, coculture fibroblast: C12385	0.855	0.788	0.767	0.722	0.672	0.645	0.616	0.587	0.576
100 µM, coculture fibroblast: H6013	0.707	0.62	0.559	0.541	0.469	0.446	0.415	0.396	0.375
100 µM, coculture fibroblast: H6019	0.803	0.739	0.702	0.645	0.607	0.591	0.555	0.528	0.498
100 µM, coculture fibroblast: H6076	0.797	0.766	0.748	0.728	0.671	0.671	0.64	0.627	0.644
100 µM, coculture fibroblast: H6231	0.774	0.735	0.67	0.604	0.582	0.556	0.521	0.496	0.49
100 µM, coculture fibroblast: HADF	0.769	0.684	0.648	0.633	0.559	0.541	0.514	0.489	0.452
100 µM, coculture fibroblast: HCFa	0.804	0.703	0.643	0.623	0.546	0.515	0.471	0.436	0.413
100 µM, coculture fibroblast: HCPF	0.8161	0.811	0.766	0.67	0.692	0.656	0.617	0.588	0.573
100 µM, coculture fibroblast: HHSteC	0.775	0.702	0.652	0.608	0.54	0.512	0.469	0.438	0.39
100 µM, coculture fibroblast: HMF	0.765	0.775	0.706	0.63	0.61	0.578	0.532	0.505	0.487
100 µM, coculture fibroblast: HPFa	0.9074	0.81	0.7841	0.71	0.65	0.622	0.579	0.55	0.521
100 µM, coculture fibroblast: HUF	0.829	0.717	0.672	0.603	0.565	0.546	0.505	0.477	0.456
100 µM, coculture fibroblast: Hs5	0.8471	0.805	0.782	0.765	0.686	0.66	0.644	0.636	0.638
100 µM, coculture fibroblast: Hs27A	0.737	0.653	0.611	0.628	0.517	0.509	0.476	0.465	0.46
100 µM, coculture fibroblast: Hs343T	0.797	0.771	0.718	0.684	0.649	0.624	0.584	0.567	0.548
100 µM, coculture fibroblast: WS1	0.805	0.7437	0.7124	0.6496	0.6115	0.584	0.548	0.53	0.505
